Data published in doi:10.1101/2020.12.01.405696.
These are yes or no findings as the source states them, for the method shown. In cells and extracts the contact can be indirect. Some binding calls cover weakened binding; strength is not graded here. One block for each binder: values may come before it.

Sequences of proteins named here, by UniProt entry; tags and fusion partners are left off.
UniProt Q15910: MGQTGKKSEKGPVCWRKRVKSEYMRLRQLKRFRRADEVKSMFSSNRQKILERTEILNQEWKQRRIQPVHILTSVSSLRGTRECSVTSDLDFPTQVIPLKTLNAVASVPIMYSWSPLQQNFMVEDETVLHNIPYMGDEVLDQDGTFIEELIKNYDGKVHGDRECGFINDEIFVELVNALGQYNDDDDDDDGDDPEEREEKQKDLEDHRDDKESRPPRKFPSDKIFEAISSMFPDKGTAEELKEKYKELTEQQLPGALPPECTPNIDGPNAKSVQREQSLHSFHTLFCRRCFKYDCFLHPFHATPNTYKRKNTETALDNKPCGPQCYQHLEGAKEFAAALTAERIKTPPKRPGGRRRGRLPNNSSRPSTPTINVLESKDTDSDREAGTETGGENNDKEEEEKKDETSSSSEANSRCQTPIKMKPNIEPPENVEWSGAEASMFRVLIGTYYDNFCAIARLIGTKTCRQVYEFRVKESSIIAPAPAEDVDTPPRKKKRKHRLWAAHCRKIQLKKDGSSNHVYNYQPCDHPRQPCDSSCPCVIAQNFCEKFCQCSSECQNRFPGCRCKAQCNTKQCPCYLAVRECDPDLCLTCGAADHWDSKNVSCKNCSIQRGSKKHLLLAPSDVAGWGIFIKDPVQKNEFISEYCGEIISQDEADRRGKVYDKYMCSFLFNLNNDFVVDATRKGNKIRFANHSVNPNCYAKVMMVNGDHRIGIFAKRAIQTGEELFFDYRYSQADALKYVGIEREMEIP

Key:
[1] = biological target: EZH2, endogenous in glioma spheres (human (endogenous in patient-derived glioma spheres g528 and g83)) (UniProt Q15910); experiment: co-IP
[2] = biological target: GST-EZH2 (UniProt Q15910); experiment: pull-down

binding [1]: binds
B1: NEK2 (serine/threonine kinase NEK2), endogenous in glioma spheres (enzyme, UniProt P51955 1-445)
chain: MPSRAEDYEVLYTIGTGSYGRCQKIRRKSDGKILVWKELDYGSMTEAEKQMLVSEVNLLRELKHPNIVRYYDRIIDRTNTTLYIVMEYCEGGDLASVITKGTKERQYLDEEFVLRVMTQLTLALKECHRRSDGGHTVLHRDLKPANVFLDGKQNVKLGDFGLARILNHDTSFAKTFVGTPYYMSPEQMNRMSYNEKSDIWSLGCLLYELCALMPPFTAFSQKELAGKIREGKFRRIPYRYSDELNEIITRMLNLKDYHRPSVEEILENPLIADLVADEQRRNLERRGRQLGEPEKSQDSSPVLSELKLKEIQLQERERALKAREERLEQKEQELCVRERLAEDKLARAENLLKNYSLLKERKFLSLASNPELLNLPSSVIKKKVHFSGESKENIMRSENSESQLTSKSKCKDLKKRLHAAQLRAQALSDIEKNYQLKSRQILGMR

binding [2]: binds
B2: NEK2 wild type (overexpression vector) (enzyme, UniProt P51955 1-445)
chain: B1 chain
